Test results taken from paper PMC10112521, “High-throughput AR dimerization assay identifies androgen disrupting chemicals and metabolites” (Frontiers in Toxicology, 2023).
Where a name gives a salt, the structure may show the parent alone.

How the values were obtained:
human AR [1] = target: T1, human AR (Homo sapiens, UniProt P10275); experiment: cell-based; design: species or system AR2 cells (HepG2-AR2); NanoLuc complementation AR homodimerization, antagonist mode, loss of agonist-induced luminescence, AC50 by Hill fit; conditions: hill_ga, antagonist mode, 10 nM agonist stimulus, 18 h, no CYP expressed
T1 sequence (P10275 1-920) 1: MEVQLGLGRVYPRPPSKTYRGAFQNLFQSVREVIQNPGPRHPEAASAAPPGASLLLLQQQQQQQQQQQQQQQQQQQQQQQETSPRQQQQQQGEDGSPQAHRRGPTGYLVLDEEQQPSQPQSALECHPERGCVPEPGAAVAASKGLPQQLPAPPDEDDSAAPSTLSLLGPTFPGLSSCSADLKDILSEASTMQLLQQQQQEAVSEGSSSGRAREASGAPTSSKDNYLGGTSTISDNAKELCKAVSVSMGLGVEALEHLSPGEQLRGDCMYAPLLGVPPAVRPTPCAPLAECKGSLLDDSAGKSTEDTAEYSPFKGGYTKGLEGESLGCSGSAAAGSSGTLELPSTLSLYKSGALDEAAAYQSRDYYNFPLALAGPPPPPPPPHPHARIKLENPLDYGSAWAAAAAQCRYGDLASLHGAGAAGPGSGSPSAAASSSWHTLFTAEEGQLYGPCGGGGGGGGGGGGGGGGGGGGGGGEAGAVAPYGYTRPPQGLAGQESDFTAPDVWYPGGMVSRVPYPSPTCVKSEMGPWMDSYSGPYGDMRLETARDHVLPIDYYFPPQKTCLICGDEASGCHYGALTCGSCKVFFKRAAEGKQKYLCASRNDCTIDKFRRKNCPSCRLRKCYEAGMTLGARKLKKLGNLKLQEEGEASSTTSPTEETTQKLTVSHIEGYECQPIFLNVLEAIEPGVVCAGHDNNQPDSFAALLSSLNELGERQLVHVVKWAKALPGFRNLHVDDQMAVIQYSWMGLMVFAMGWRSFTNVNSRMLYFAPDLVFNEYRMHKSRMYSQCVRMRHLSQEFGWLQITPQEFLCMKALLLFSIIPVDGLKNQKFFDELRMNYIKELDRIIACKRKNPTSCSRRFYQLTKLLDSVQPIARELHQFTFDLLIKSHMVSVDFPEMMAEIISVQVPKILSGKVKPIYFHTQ
T1 sequence (P10275 1-920) 2: T1 sequence (P10275 1-920) 1

human AR [2] = target: T1, human AR; experiment: cell-based; design: species or system AR2 cells (HepG2-AR2); NanoLuc complementation AR homodimerization, agonist mode, luminescence gain, AC50 by Hill fit; conditions: hill_ga, spid=Bgal; agonist mode, 18 h, no CYP expressed

Row | Compound | AC50 (human AR [1]; spid=Bgal) [µM] | AC50 (human AR [1]; spid=No_RNA) [µM] | AC50 (human AR [2]) [µM]
1 | CCN(CC)CCOc1ccc(C(=C(Cl)c2ccccc2)c2ccccc2)cc1 [Clomiphene citrate] | 9.09 | 8.79 | > 99.9
2 | CCN(CC)CCOc1ccc(/C(=C(/Cl)c2ccccc2)c2ccccc2)cc1 [Enclomiphene hydrochloride] | 7.61 | 6.29 | 
